Measured values: PMC7442787

Protein sequences, listed by entry. Tags and fused reporters are not part of them.
UniProt P53996: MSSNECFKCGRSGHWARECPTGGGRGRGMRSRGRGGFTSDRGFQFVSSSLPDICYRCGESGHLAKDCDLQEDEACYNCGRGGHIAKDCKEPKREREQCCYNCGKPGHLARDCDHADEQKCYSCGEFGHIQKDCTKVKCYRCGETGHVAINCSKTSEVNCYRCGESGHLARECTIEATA

T1: Suppressor of fused (Sufu), endogenous (mouse (endogenous in NIH3T3 and MEFs)) (UniProt Q9Z0P7)
T1 sequence: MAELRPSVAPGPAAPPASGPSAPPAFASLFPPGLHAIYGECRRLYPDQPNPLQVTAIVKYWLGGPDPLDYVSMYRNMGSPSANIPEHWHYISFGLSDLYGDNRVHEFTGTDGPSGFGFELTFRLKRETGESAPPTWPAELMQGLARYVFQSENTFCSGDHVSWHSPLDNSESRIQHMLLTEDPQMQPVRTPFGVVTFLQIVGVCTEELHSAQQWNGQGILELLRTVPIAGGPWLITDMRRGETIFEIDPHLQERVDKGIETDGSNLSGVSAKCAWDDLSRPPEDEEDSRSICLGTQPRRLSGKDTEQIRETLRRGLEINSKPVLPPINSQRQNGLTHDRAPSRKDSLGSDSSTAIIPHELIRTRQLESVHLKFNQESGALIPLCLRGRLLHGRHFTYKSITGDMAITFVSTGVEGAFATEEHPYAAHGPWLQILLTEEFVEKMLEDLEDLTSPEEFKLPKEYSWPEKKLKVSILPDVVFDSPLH


Target: T1, Suppressor of fused (Sufu), endogenous (mouse (endogenous in NIH3T3 and MEFs))
Experiment: affinity purification with mass spectrometry; endogenous Sufu immunoprecipitated with anti-Sufu antibodies from NIH3T3 cells treated with Shh- or control-conditioned medium for 24 h; eluate analysed by gel-free LC-MS/MS

| Molecule | binding |
| --- | --- |
| zinc-finger protein CNBP, endogenous (from UniProt P53996 1-178) | binds |
| Protein phosphatase 4 regulatory subunit 2 (Ppp4r2), endogenous (protein, UniProt Q0VGB7 1-417) MDVERLQEALKDFEKRGKKEVCPVLDQFLCHVAKTGETMIQWSQFKGYFIFKLEKVMDDFRTSAPEPRGPPNPNVEYIPFDEMKERILKIVTGFNGIPFTIQRLCELLTDPRRNYTGTDKFLRGVEKNVMVVSCVCPSSEKNNSNSLNRMNGVMFPGNSPNYTDRSNINGPGTPRPLNRPKLSLSAPLTTNGLPESTDSKDSELQLSEEKGHSDSSASESEVSLLSPVKNKHPDEDAVESEEHEVKRLKFDKEGDVRETASQTVSGEVSSVRAEETETAAPPPDKDRESRTRQHCTEEEEEEEEEEEEEEEESFMTPREMVPERKNQEKESDDALTVNEETSEESHQMEGSGVSPAQTDSTSERSDSAGASRSGSDCLETQESGGPPSSKTGESVSVPSSMESEEATEVTDDPMEQD | binds |

No constants are given. Whether binding was seen depends on the method and setting. Binding seen in cells or lysates may run through a third protein. Here binding means that the protein was enriched with, or labelled near, the bait; the list need not be complete. Where a sequence is shown, tags or fusion partners need not be part of it.
